Data from the supplement of paper PMC10849652.
This is one part of the list.

Protein sequences, listed by entry. Tags and fused reporters are not part of them. Lines headed by an entry give the natural chain unless they say otherwise; changes in a name come on top.
UniProt Q6PCE3: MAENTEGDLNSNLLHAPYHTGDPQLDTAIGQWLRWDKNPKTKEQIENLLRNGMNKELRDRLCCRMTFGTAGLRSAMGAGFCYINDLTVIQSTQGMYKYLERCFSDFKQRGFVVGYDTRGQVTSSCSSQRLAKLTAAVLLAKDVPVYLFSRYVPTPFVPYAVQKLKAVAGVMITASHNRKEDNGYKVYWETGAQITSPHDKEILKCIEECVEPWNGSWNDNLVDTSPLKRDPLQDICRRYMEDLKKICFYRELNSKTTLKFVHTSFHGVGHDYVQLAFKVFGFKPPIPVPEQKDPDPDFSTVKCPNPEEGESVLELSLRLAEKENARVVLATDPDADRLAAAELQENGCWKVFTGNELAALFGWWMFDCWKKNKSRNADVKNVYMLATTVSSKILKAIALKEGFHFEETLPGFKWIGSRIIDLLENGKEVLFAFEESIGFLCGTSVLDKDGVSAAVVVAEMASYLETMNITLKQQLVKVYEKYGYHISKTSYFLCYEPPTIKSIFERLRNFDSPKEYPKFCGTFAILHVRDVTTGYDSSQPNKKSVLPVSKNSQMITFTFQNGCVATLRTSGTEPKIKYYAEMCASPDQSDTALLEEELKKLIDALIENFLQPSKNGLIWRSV
UniProt P19174: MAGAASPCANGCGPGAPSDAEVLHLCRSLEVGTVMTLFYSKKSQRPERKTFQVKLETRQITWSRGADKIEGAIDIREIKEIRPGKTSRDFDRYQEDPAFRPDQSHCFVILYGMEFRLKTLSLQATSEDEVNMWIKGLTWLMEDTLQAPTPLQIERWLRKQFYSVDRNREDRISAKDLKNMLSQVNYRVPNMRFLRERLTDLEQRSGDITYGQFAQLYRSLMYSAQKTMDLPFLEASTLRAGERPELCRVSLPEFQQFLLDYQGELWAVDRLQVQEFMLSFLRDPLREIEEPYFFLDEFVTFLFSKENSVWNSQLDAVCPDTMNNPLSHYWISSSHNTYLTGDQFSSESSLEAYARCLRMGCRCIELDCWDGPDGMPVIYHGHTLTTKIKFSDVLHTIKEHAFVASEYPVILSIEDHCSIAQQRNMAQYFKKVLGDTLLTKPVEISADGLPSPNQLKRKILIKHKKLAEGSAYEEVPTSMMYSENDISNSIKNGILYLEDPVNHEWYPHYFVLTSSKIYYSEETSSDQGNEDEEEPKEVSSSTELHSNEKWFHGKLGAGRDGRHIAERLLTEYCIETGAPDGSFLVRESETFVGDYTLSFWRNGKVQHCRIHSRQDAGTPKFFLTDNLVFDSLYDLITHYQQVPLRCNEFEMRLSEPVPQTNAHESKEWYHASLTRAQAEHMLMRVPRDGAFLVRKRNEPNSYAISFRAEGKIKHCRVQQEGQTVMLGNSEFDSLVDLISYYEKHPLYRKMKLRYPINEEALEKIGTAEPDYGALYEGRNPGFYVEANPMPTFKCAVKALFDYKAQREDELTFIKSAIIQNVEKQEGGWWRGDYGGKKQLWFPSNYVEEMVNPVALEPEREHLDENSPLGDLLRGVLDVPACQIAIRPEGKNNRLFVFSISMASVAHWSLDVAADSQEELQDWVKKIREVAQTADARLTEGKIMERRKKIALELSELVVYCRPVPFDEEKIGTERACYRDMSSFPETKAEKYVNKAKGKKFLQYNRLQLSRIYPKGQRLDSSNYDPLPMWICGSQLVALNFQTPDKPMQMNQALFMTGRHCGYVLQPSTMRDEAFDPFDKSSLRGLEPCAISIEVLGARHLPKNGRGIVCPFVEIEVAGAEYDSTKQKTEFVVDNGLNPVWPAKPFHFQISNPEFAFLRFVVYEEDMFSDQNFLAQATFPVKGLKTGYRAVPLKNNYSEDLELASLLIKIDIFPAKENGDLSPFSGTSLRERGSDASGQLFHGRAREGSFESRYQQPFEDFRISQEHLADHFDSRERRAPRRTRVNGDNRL
UniProt Q92521: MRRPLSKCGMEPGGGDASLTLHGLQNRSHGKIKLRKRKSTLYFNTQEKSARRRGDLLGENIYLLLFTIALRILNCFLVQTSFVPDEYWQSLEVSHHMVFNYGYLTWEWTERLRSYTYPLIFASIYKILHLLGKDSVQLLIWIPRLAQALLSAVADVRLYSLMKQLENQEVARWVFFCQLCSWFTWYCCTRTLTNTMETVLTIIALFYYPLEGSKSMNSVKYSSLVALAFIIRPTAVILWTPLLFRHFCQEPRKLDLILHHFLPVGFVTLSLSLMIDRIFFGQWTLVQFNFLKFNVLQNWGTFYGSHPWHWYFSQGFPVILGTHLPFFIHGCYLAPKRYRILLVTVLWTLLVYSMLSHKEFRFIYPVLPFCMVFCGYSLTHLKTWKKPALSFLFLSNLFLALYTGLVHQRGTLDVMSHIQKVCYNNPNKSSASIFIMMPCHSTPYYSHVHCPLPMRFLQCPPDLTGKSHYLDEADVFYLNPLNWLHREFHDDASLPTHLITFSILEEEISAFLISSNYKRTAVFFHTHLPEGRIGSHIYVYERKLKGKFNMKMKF
UniProt Q93100: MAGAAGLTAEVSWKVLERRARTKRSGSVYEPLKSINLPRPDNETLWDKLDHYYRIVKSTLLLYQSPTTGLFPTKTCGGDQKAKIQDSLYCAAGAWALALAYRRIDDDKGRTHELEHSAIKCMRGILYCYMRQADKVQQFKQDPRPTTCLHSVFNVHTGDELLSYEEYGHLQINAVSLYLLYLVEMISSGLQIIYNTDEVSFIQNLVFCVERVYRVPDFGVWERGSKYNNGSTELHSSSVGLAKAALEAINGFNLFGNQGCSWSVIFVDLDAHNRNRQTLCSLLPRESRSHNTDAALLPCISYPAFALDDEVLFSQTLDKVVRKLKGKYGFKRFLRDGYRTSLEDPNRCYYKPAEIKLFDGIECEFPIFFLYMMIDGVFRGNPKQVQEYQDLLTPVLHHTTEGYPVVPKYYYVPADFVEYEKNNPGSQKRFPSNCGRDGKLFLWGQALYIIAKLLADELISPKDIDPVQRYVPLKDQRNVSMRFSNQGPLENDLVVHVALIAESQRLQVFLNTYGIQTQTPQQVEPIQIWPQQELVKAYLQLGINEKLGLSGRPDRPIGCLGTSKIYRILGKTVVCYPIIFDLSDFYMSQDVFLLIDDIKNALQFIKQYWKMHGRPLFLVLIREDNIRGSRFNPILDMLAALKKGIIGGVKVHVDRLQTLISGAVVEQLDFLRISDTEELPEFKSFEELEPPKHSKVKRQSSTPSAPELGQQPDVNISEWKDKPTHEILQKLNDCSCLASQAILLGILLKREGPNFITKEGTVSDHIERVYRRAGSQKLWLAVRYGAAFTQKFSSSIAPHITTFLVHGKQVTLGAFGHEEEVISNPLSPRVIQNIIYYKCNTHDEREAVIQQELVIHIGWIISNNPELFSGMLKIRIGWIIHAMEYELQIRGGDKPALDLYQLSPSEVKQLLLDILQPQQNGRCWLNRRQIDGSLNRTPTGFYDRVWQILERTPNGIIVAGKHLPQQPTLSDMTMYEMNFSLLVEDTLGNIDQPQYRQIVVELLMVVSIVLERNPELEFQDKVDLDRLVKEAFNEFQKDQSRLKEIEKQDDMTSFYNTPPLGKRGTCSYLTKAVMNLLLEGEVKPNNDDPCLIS
UniProt Q6P5Z2: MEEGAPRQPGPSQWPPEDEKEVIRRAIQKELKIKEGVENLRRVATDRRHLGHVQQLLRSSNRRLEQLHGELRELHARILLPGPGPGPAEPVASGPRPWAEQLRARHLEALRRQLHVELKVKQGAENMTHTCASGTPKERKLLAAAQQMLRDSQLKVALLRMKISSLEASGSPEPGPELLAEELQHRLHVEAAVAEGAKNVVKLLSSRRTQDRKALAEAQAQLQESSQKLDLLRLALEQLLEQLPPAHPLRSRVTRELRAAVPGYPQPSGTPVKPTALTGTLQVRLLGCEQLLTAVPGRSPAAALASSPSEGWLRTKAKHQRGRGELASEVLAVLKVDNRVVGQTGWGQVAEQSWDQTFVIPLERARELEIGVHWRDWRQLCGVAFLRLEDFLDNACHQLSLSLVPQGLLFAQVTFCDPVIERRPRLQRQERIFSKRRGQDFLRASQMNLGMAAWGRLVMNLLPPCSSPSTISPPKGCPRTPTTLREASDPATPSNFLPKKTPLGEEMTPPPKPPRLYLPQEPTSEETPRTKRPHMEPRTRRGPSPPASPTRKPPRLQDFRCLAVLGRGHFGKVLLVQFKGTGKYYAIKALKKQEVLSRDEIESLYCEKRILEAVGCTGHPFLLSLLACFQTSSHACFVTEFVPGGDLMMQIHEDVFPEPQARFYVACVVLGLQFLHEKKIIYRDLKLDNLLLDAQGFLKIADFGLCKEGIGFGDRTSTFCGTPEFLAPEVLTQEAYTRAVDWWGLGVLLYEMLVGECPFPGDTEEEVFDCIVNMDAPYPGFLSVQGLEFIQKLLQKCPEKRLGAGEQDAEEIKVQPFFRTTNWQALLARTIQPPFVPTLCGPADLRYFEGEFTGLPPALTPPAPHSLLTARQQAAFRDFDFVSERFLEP
UniProt Q99569: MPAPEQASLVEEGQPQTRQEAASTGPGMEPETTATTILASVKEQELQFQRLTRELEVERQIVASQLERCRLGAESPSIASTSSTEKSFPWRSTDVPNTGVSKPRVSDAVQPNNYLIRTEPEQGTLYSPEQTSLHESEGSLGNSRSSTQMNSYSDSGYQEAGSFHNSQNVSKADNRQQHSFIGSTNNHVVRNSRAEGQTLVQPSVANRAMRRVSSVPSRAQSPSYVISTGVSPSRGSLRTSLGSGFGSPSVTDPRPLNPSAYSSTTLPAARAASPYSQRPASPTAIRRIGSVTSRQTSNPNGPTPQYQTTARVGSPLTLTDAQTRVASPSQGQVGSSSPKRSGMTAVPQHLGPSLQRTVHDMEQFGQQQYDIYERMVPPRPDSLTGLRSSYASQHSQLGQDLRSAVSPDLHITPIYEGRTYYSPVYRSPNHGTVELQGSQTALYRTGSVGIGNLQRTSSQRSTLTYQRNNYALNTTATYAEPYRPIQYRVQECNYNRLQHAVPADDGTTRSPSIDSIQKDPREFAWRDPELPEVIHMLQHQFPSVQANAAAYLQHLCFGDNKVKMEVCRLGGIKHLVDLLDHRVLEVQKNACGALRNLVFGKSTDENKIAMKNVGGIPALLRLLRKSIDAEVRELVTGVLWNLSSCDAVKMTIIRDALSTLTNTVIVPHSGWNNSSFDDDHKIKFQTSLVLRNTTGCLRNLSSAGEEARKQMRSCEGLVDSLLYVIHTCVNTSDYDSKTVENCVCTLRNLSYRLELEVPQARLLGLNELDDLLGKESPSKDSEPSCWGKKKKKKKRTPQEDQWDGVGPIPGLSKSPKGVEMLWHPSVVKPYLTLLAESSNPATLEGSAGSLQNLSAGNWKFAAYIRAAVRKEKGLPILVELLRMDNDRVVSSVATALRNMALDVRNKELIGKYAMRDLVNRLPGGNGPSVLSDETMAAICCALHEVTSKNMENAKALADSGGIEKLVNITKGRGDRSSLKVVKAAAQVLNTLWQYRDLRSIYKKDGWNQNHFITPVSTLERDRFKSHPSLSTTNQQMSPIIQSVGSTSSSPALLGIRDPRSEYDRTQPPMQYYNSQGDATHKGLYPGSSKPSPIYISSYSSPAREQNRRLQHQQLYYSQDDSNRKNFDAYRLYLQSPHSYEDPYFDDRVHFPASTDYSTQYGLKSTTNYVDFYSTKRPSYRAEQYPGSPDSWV
UniProt Q6ZUJ8: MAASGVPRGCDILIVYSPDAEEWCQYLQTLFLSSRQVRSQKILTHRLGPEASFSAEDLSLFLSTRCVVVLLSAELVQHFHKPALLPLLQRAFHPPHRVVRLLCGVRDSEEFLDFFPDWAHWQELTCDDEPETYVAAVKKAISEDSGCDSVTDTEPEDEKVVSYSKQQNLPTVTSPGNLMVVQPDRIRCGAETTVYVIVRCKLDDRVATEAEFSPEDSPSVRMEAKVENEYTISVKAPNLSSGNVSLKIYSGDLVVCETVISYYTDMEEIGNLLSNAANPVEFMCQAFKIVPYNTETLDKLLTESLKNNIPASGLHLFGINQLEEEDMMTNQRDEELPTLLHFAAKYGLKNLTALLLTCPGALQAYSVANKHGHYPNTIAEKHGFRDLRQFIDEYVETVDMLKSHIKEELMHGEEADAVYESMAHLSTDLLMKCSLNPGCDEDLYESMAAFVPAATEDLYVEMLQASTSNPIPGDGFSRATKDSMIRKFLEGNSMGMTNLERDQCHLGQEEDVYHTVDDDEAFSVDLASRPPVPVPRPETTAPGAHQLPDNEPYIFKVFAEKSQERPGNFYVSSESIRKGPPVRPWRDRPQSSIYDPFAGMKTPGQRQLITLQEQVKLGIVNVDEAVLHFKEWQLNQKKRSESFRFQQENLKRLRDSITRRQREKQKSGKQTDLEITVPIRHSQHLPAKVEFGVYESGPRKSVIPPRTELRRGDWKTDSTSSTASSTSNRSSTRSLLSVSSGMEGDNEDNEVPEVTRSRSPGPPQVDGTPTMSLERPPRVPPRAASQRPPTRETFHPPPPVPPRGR

Assays:
Assay in all cases: log2 fold change, soluble protein after heating vs DMSO (PISA); higher = thermal stabilisation; K562 lysate, 10 uM; active = over 0.2 and 3.5 SD of the protein, either way, in both replicates (recomputed)
[1] = compound: C1=CC=C(C=C1)[C@H](COC2=CC3=C(C=C2)NC(=O)N3)NC(=O)C4=CC=CN(C4=O)CC5=CC(=C(C=C5)F)F
Outline: (§1)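 K562 pellets were dounce-homogenised in PBS pH 7.4 with 1 mM MgCl2, and the crude extract at 1 mg/mL protein was treated with 10 μM compound for 30 min. Aliquots were heated for 3 min across 48°C-58°C, pooled, and brought to 0.5% NP-40 at 4°C; soluble protein was the supernatant after 21,000xg for 90 min. Soluble protein was quantified by TMTpro 16plex LC-MS/MS with channel sums equalised, and reported as log2 fold change in thermal stability against DMSO controls, with values from duplicates.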

[2] = compound: CC1=C(SC2=C1C(=N[C@H](C3=NN=C(N32)C)CC(=O)N)C4=CC=C(C=C4)Cl)C
Outline: as §1

[3] = compound: CC1=C2C(=CC=C1)N=C(N(C2=O)C3=CC=CC=C3C)CN4C=NC5=C(N=CN=C54)N
Outline: as §1

[4] = compound: Cc1sc2c(c1C)C(c1ccc(Cl)cc1)=N[C@@H](CC(=O)OC(C)(C)C)c1nnc(C)n1-2
Outline: as §1

[5] = compound: c1ccc([C@@H]2C[C@H]2NC2CCNCC2)cc1
Outline: as §1

Measured: log2 fold change

PGM2L1 (UniProt Q6PCE3)
inactive: [1] 0.022 | [2] -0.008 | [3] 0.012 | [4] -0.029 | [5] -0.029

PLBD1 (UniProt Q6P4A8)
inactive: [1] -0.026 | [2] 0.014 | [3] -0.012 | [4] -0.099 | [5] -0.06

PLCB3 (UniProt Q01970)
inactive: [1] 0.021 | [2] 0.016 | [3] 0.031 | [4] 0.008 | [5] 0.02

Reprinted at random: 2 entries already listed.
PGM2L1 (UniProt Q6PCE3)
inactive: [1] 0.022 | [2] -0.008 | [3] 0.012 | [4] -0.029 | [5] -0.029

PLBD1 (UniProt Q6P4A8)
inactive: [1] -0.026 | [2] 0.014 | [3] -0.012 | [4] -0.099 | [5] -0.06

Later entries.

PLCG1 isoform 2 (UniProt P19174)
inactive: [1] 0.051 | [2] 0.027 | [3] -0.002 | [4] -0.054 | [5] 0.033

PIGB (UniProt Q92521)
inactive: [1] 0.105 | [2] -0.029 | [3] 0.119 | [5] -0.001

PICALM (UniProt H0YEH1)
inactive: [1] 0.018 | [2] -0.027 | [3] -0.138 | [4] 0.075 | [5] -0.303

PHKB isoform 3 (UniProt Q93100)
inactive: [1] 0.015 | [2] 0.011 | [3] 0.042 | [4] -0.012 | [5] -0.066

PI4K2B (UniProt Q8TCG2)
inactive: [1] -0.033 | [2] 0.048 | [3] 0.074 | [4] 0.068 | [5] 0.077

PKN3 (UniProt Q6P5Z2)
inactive: [1] -0.198 | [2] 0.086 | [3] 0.022 | [4] 0.005 | [5] 0.002

PIDD1 (UniProt Q9HB75)
inactive: [4] 0.093

PKP4 (UniProt Q99569)
inactive: [4] 0.075 | [5] -0.01

PIAS1 isoform 2 (UniProt O75925)
inactive: [4] -0.056 | [5] 0.047

PHC3 isoform 7 (UniProt Q8NDX5)
inactive: [3] -0.071 | [4] 0.039 | [5] -0.021

PIK3AP1 (UniProt Q6ZUJ8)
inactive: [1] -0.086 | [2] 0.069 | [4] 0.173

PLAU (UniProt P00749)
inactive: [4] -0.177

PHF13 (UniProt Q86YI8)
inactive: [1] 0.098 | [2] -0.007 | [5] -0.357
